Assay: general procedure: solution-phase peptide synthesis; TPTU/HOBT/DIEA; HATU/DIEA
Conditions: late stage modification step

Row | Substance | step yield (on macrocycle C) [%] | step yield | other results
1 | (S)-2-(3-(benzo[d][1,3]dioxol-5-yl)ureido)-N-((2R,6S,8aS,14aS,20S,23aS)-2,6-dimethyl-5,8,14,19,23-pentaoxooctadecahydro-1H,5H,14H,19H-pyrido[2,1-i]dipyrrolo[2,1-c:2′,1′-l][1]oxa[4,7,10,13]tetraazacyclohexadecin-20-yl)-3-phenylpropanamide | 25.2 |  | 
2 | (S)-3-(3,5-difluorophenyl)-N-((2R,6S,9R,11aS,17S,20aS)-9-((R)-1-hydroxyethyl)-2,6,10-trimethyl-5,8,11,16,20-pentaoxohexadecahydro-1H,5H,16H-dipyrrolo[2,1-c:2′,1′-l][1]oxa[4,7,10,13]tetraazacyclohexadecin-17-yl)-2-(3-(p-tolyl)ureido)propanamide |  | 35% | 
3 | (2S)-3-(3,5-difluorophenyl)-2-(3-(4-ethylphenyl)ureido)-N-((6S,9S,11aS,17S,18S)-6,9,10,18-tetramethyl-5,8,11,16,20-pentaoxohexadecahydro-1H,5H,16H-dipyrrolo[2,1-c:2′,1′-l][1]oxa[4,7,10,13]tetraazacyclohexadecin-17-yl)propanamide | 36.1 |  | 
4 | (S)—N-((2R,6S,8aS,14aS,20S,23aS)-2,6-dimethyl-5,8,14,19,23-pentaoxooctadecahydro-1H,5H,14H,19H-pyrido[2,1-i]dipyrrolo[2,1-c:2′,1′-l][1]oxa[4,7,10,13]tetraazacyclohexadecin-20-yl)-2-(3-(3-ethylphenyl)ureido)-3-phenylpropanamide |  | 22.7% | 
5 | (S)-2-(3-(4-chlorophenyl)ureido)-N-((2R,6S,8aS,14aS,20S,23aS)-2,6-dimethyl-5,8,14,19,23-pentaoxooctadecahydro-1H,5H,14H,19H-pyrido[2,1-i]dipyrrolo[2,1-c:2′,1′-l][1]oxa[4,7,10,13]tetraazacyclohexadecin-20-yl)-3-phenylpropanamide |  | 49.7% | 
6 | (S)-3-(3,5-difluorophenyl)-N-((2S,6S,8aS,14aS,20S,23aS)-2,6-dimethyl-5,8,14,19,23-pentaoxooctadecahydro-1H,5H,14H,19H-pyrido[2,1-i]dipyrrolo[2,1-c:2′,1′-l][1]oxa[4,7,10,13]tetraazacyclohexadecin-20-yl)-2-(3-(p-tolyl)ureido)propanamide | 26.3 |  | 
7 | (S)-3-(3,5-difluorophenyl)-2-(3-(4-(trifluoromethoxy)phenyl)ureido)-N-((6aS,12S,13S,15aS,17S,21S,23aS)-13,17,21-trimethyl-6,11,15,20,23-pentaoxooctadecahydro-6H,11H,15H-[1,4]oxazino[3,4-i]dipyrrolo[2,1-c:2′,1′-l][1]oxa[4,7,10,13]tetraazacyclohexadecin-12-yl)propanamide | 43.6 |  | 
8 | (2S)-3-(3,5-difluorophenyl)-N-((6S,9S,11aS,17S,18S)-6,9,10,18-tetramethyl-5,8,11,16,20-pentaoxohexadecahydro-1H,5H,16H-dipyrrolo[2,1-c:2′,1′-l][1]oxa[4,7,10,13]tetraazacyclohexadecin-17-yl)-2-(3-(4-(trifluoromethoxy)phenyl)ureido)propanamide | 16 |  | 
9 | sodium (2R,6S,8aS,14aS,16R,20S,21S,23aS)-20-((S)-3-(3,5-difluorophenyl)-2-(3-(3,4-dimethylphenyl)ureido)propanamido)-2,6,21-trimethyl-5,8,14,19,23-pentaoxooctadecahydro-1H,5H,14H,19H-pyrido[2,1-i]dipyrrolo[2,1-c:2′,1′-l][1]oxa |  |  | step yield (sodium salt): about 99%
10 | (S)-3-(3,5-difluorophenyl)-N-((2R,6S,9S,11aS,17S,18S,20aS)-9-((R)-1-hydroxyethyl)-2,6,10,18-tetramethyl-5,8,11,16,20-pentaoxohexadecahydro-1H,5H,16H-dipyrrolo[2,1-c:2′,1′-l][1]oxa[4,7,10,13]tetraazacyclohexadecin-17-yl)-2-(3-(4-(trifluoromethoxy)phenyl)ureido)propanamide | 68.3 |  | 
11 | (S)—N-((2R,6S,8aS,14aS,20S,23aS)-2,6-dimethyl-5,8,14,19,23-pentaoxooctadecahydro-1H,5H,14H,19H-pyrido[2,1-i]dipyrrolo[2,1-c:2′,1′-l][1]oxa[4,7,10,13]tetraazacyclohexadecin-20-yl)-2-(3-(4-ethylphenyl)ureido)-3-phenylpropanamide |  | 16% | 
12 | (S)—N-((2R,6S,8aS,14aS,20S,23aS)-2,6-dimethyl-5,8,14,19,23-pentaoxooctadecahydro-1H,5H,14H,19H-pyrido[2,1-i]dipyrrolo[2,1-c:2′,1′-l][1]oxa[4,7,10,13]tetraazacyclohexadecin-20-yl)-3-phenyl-2-(3-(p-tolyl)ureido)propanamide | 30 |  | 
13 | (S)-3-(3,5-difluorophenyl)-N-((6S,8aS,14aS,20S,21S,23aS)-6,21-dimethyl-5,8,14,19,23-pentaoxooctadecahydro-1H,5H,14H,19H-pyrido[2,1-i]dipyrrolo[2,1-c:2′,1′-l][1]oxa[4,7,10,13]tetraazacyclohexadecin-20-yl)-2-(3-(p-tolyl)ureido)propanamide |  | 54% | 
14 | (S)—N-((2R,6S,8aS,14aS,20S,23aS)-2,6-dimethyl-5,8,14,19,23-pentaoxooctadecahydro-1H,5H,14H,19H-pyrido[2,1-i]dipyrrolo[2,1-c:2′,1′-l][1]oxa[4,7,10,13]tetraazacyclohexadecin-20-yl)-2-(3-(4-Methoxyphenyl)ureido)-3-phenylpropanamide |  | 20.9% | 
15 | (2S)-3-(3,5-difluorophenyl)-N-((2S,6S,9S,11aS,17S,18S)-2,6,9,10,18-pentamethyl-5,8,11,16,20-pentaoxohexadecahydro-1H,5H,16H-dipyrrolo[2,1-c:2′,1′-l][1]oxa[4,7,10,13]tetraazacyclohexadecin-17-yl)-2-(3-(p-tolyl)ureido)propanamide | 16.9 |  | 
16 | (6aS,8R,12S,13S,15aS,17R,21S,23aS)-12-((S)-3-(3,5-difluorophenyl)-2-(3-(3,4-dimethylphenyl)ureido)propanamido)-13,17,21-trimethyl-6,11,15,20,23-pentaoxooctadecahydro-6H,11H,15H-[1,4]oxazino[3,4-i]dipyrrolo[2,1-c:2′,1′-L][1]oxa |  | about 27% | 
17 | (2S)-3-(3,5-difluorophenyl)-N-((6S,9S,11aS,17S,18S)-6,9,10,18-tetramethyl-5,8,11,16,20-pentaoxohexadecahydro-1H,5H,16H-dipyrrolo[2,1-c:2′,1′-l][1]oxa[4,7,10,13]tetraazacyclohexadecin-17-yl)-2-(3-(p-tolyl)ureido)propanamide | 30.7 |  | 
18 | (S)-2-(3-(2-chlorophenyl)ureido)-N-((2R,6S,8aS,14aS,20S,23aS)-2,6-dimethyl-5,8,14,19,23-pentaoxooctadecahydro-1H,5H,14H,19H-pyrido[2,1-i]dipyrrolo[2,1-c:2′,1′-l][1]oxa[4,7,10,13]tetraazacyclohexadecin-20-yl)-3-phenylpropanamide |  | 14.5% | 
19 | (2S,6S,9S,11aS,13R,17S,18S,20aS)-17-((S)-3-(3,5-difluorophenyl)-2-(3-(p-tolyl)ureido)propanamido)-2,6,9,10,18-pentamethyl-5,8,11,16,20-pentaoxohexadecahydro-1H,5H,16H-dipyrrolo[2,1-c:2′,1′-l][1]oxa[4,7,10,13]tetraazacyclohexadecin |  | about 14% | 
20 | (S)—N-((2R,6S,8aS,14aS,20S,23aS)-2,6-dimethyl-5,8,14,19,23-pentaoxooctadecahydro-1H,5H,14H,19H-pyrido[2,1-i]dipyrrolo[2,1-c:2′,1′-l][1]oxa[4,7,10,13]tetraazacyclohexadecin-20-yl)-3-phenyl-2-(3-(4-(trifluoromethoxy)phenyl)ureido)propanamide [2] |  | 41% | 
21 | (S)-3-(3,5-difluorophenyl)-N-((2S,6S,8aS,14aS,20S,23aS)-2-fluoro-6-methyl-5,8,14,19,23-pentaoxooctadecahydro-1H,5H,14H,19H-pyrido[2,1-i]dipyrrolo[2,1-c:2′,1′-l][1]oxa[4,7,10,13]tetraazacyclohexadecin-20-yl)-2-(3-(p-tolyl)ureido)propanamide | 25.2 |  | 
22 | (S)-3-(3,5-difluorophenyl)-2-(3-(4-(trifluoromethoxy)phenyl)ureido)-N-((2R,6S,8aS,14aS,20S,21S,23aS)-2,6,21-trimethyl-5,8,14,19,23-pentaoxooctadecahydro-1H,5H,14H,19H-pyrido[2,1-i]dipyrrolo[2,1-c:2′,1′-l][1]oxa[4,7,10,13]tetraazacyclohexadecin-20-yl)propanamide |  | 39% | 
23 | (S)-3-(3,5-difluorophenyl)-2-(3-(4-ethylphenyl)ureido)-N-((2S,6S,9S,11aS,17S,18S,20aS)-2,6,9,10,18-pentamethyl-5,8,11,16,20-pentaoxohexadecahydro-1H,5H,16H-dipyrrolo[2,1-c:2′,1′-L][1]oxa[4,7,10,13]tetraazacyclohexadecin-17-yl)propanamide | 37.9 |  | 
24 | (S)—N-((2R,6S,8aS,14aS,20S,23aS)-2,6-dimethyl-5,8,14,19,23-pentaoxooctadecahydro-1H,5H,14H,19H-pyrido[2,1-i]dipyrrolo[2,1-c:2′,1′-l][1]oxa[4,7,10,13]tetraazacyclohexadecin-20-yl)-2-(3-(1-methyl-1H-indol-6-yl)ureido)-3-phenylpropanamide |  | 44.1% | 
